Results: patent publication US8822509B2, “Pain-relieving compositions and uses therefor” (priority 2006, dated 2014)
Entries after “also recorded” stand apart in the source; their conditions may differ.

What was measured:
[1] = system: tactile allodynia in 14-18 week STZ-diabetic rats; experiment: Naloxone or ODQ pre-treatment before test article in 14-18 week STZ-diabetic rats, von Frey PWT; format: in vivo, Wistar rats; details: naloxone 1.25 μmol/kg s.c. 10 min before Compound 1 800 pmol/kg or morphine 7 μmol/kg s.c.
[2] = system: non-diabetic control rats; experiment: Tolerance development (7-day continuous s.c. infusion, 2-day washout) in non-diabetic control rats, von Frey PWT; format: in vivo; details: second s.c. bolus of morphine after washout

CN1CC[C@]23c4c5ccc(O)c4O[C@H]2[C@@H](O)C=C[C@H]3[C@H]1C5 [morphine, reference compound]
effect of naloxone pre-treatment on anti-allodynia (ΔPWT AUC) [1]: completely abolished the anti-allodynic effects; also recorded: attenuated by naloxone | ΔPWT AUC [2]: 0.0 (±0.2) g·h
